US20260008818A1, “CYCLIC PEPTIDE OR SALT THEREOF, AND USES THEREOF” (FUJIFILM Corporation, priority 2023, published 2026)
No constants are given. Whether binding was seen depends on the method and setting. Some entries that bind do so weakly or less than the wild type.

The chains behind the UniProt entries cited, without tags or fusion partners. Where a name states a change or a piece, a line headed by the entry shows the natural chain unless it says otherwise. Residues count along the entry.
UniProt P22607, residues 23-375: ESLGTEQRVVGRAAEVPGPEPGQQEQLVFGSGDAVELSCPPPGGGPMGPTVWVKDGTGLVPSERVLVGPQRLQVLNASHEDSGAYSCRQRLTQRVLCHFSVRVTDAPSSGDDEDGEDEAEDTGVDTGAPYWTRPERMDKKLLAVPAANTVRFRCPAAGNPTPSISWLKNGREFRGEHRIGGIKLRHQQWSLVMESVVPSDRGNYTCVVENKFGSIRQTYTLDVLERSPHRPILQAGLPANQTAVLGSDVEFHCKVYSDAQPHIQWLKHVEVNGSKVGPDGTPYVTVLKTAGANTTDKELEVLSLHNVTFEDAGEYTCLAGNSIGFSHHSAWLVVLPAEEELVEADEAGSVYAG
UniProt P11362, residues 22-376: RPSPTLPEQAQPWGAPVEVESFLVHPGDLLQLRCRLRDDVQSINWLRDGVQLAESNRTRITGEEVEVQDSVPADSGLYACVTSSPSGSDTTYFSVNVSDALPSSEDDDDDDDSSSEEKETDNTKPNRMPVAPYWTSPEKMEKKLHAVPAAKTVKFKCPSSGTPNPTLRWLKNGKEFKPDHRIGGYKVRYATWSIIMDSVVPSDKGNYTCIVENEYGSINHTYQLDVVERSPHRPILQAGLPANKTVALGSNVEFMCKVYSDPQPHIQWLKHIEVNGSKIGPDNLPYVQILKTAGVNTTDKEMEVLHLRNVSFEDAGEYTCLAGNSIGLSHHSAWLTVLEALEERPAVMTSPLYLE

Columns and labels:
[1] = target: FGFR3 Protein, Human, Recombinant (ECD, His Tag) (Sino Biological, 16044-H08H) (human) (UniProt P22607); experiment: SPR, peptide immobilized, 1 umol/L FGFR
[2] = target: FGFR1 Protein, Human, Recombinant (His Tag) (Sino Biological, 10616-H08H) (human) (UniProt P11362); experiment: SPR, peptide immobilized, 1 umol/L FGFR

binding [1]: binds | binding [2]: binds
Binder: HCSYERLQFHGHEAPFRVKVKKK (thioether ring (C)-(K(acetyl))) [SEQ ID NO: 382]
